According to PubChem BioAssay AID493014 (National Center for Advancing Translational Sciences (NCATS), 2011):
Among all 340,000 compounds or so, about 170 (0.05%) were called active. This list was built around the results that the source calls inconclusive (neither active nor inactive); the mix of calls is not that of the screen. Calls come from the whole dose curve; as a rule, active = well fitted inhibition curve with a large enough effect in the signal ratio, with a control signal flat (not every such curve was filed as active); inconclusive = small, poorly fitted or top-dose-only effect, or effect the other way, or a change in a side signal; inactive = flat fitted curve, though single readings scatter; the % refers to the signal ratio. Potencies beside an inconclusive call are fits to weak or partial responses and may not hold up.

Assay: qHTS Assay to Find Inhibitors of Chronic Active B-Cell Receptor Signaling;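 for activity change, negative = inhibition: plate controls were basal doxycycline-induced cells for no effect and cells given 10 µM MG132 for full effect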
Conditions: ABC-DLBCL IkBa-CBG/CBR reporter, luminescence ratio (green luciferase fused to IkBa over red control in TMD8 lymphoma cells), 4 h; activity change, negative = inhibition: at 46.1 µM (top of the series) unless noted
How it was run: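 Cell line TMD8 (human ABC DLBCL), stably expressing tet-inducible CBG68-IkBa fusion and CBR; IMDM/0.5% FBS; cpd up to 46 uM; dox induction, 4 h, 37C/5% CO2; dual luminescence; green/red ratio; MG132 control.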
Potency is the fitted concentration of half-maximal effect.

Row | SMILES | Potency | activity change, negative = inhibition
1 | COc1ccccc1NC(=O)Nc1ccc(C(N)=O)cc1 | inconclusive: 11.2 µM [falling, partial curve] | –
2 | Cc1ccccc1CN(C)CC(=O)Nc1ccccc1-c1ccccc1 | inconclusive: 32.6 µM [rising, partial curve, poor fit] | –
3 | O=C(N/N=C/c1ccc([N+](=O)[O-])s1)c1ccccc1Br | inconclusive: 35.5 µM [falling, single point] | –
4 | CCC(C(=O)NCc1ccc2c(c1)CCN2C(=O)c1ccc(F)cc1)c1ccccc1 (stereo not given) | inconclusive: 1.78 µM [rising, partial curve] | –
5 | Cc1ccc(SC[C@H](c2ccccc2)N2CCN(CCc3ccccc3)CCC2=O)cc1 | – | inactive: 3.85%
6 | Cc1ccc(NC(=O)COC(=O)c2cc(=O)c3ccccc3o2)cc1F | – | inactive: -4.76%
7 | CC1Cc2nc(SCC(=O)Nc3ccc4c(c3)OCCO4)n(C)c(=O)c2S1 (stereo not given) | inconclusive: 23.1 µM [falling, single point] | –
8 | Cc1nc2ccccc2c2oc(C(=O)NCCCN3CC(C)CC(C)C3)cc12 (stereo not given) | – | inactive: 6.57%
9 | O=C(Nc1cc2c(cc1Br)OCCCO2)c1ccccc1 | – | inactive: 3.69%
10 | Cc1cccc(NC(=O)CC2C(=O)NCCN2C(=S)Nc2ccccc2)c1 (stereo not given) | – | inactive: 0.381%
11 | C=CCn1c(=S)[nH]c2cc(C(=O)Nc3ccc(F)cc3)ccc2c1=O | – | inconclusive: 1.12%
12 | CCN1CCN(Cc2ccc(NC(=O)c3ccc(C)c(NC(=O)N4CCNC4=O)c3)cc2C(F)(F)F)CC1 | inconclusive: 12.6 µM [falling, partial curve, poor fit] | inconclusive: -4.49%
13 | CC(=O)C1C(c2ccc(Cl)cc2)c2c(noc2C)CC1(C)O (stereo not given) | – | inconclusive: 12.6%
14 | CC(C)(C)c1ccc(NC(=O)COc2ccc(-n3ccnc3)cc2)cc1 | – | inconclusive: -4.23%
15 | Cc1ccc(-c2noc(C3CCCN(C(=O)C4CCCCC4)C3)n2)o1 (stereo not given) | – | inconclusive: 15.4%
16 | CC(C)(O)C#Cc1ccc(CN2CCN(C3CCCCC3)C(CCO)C2)cc1 (stereo not given) | – | inactive: -24.1%
17 | COC(=O)c1ccccc1NC(=O)C1CC(=O)N(c2ccc(C)c(C)c2)C1 (stereo not given) | inconclusive: 32.6 µM [falling, partial curve, poor fit] | –
18 | COc1ccc(-c2nc(-c3cccc(C)c3)nc(Cl)c2C#N)cc1 | – | inconclusive: 4.82%
19 | CC(Oc1ccc(Cl)cc1Cl)C(=O)NC1CCSC1=O (stereo not given) | – | inconclusive: 2.6%
20 | CCc1ccccc1NC(=O)CCCSc1nc2ccccc2s1 | inconclusive: 1.64 µM [rising, full curve, poor fit] | –

Gathered by group, the compounds so far with four or more nitrogen atoms.
Row | SMILES | Potency | activity change, negative = inhibition
10 | Cc1cccc(NC(=O)CC2C(=O)NCCN2C(=S)Nc2ccccc2)c1 (stereo not given) | – | inactive: 0.381%
12 | CCN1CCN(Cc2ccc(NC(=O)c3ccc(C)c(NC(=O)N4CCNC4=O)c3)cc2C(F)(F)F)CC1 | inconclusive: 12.6 µM [falling, partial curve, poor fit] | inconclusive: -4.49%

(cont.)

Row | SMILES | Potency | activity change, negative = inhibition
21 | O=C(N/N=C(\Cc1ncc[nH]1)c1ccccc1)c1ccccc1 | inconclusive: 3.98 µM [falling, single point] | –
22 | Cc1ccc(S(=O)(=O)Oc2ccc(/C=N/N=C3/NC(=O)C(CC(=O)O)S3)cc2)cc1 (stereo not given) | – | inactive: -2.91%
23 | CC(=O)c1ccc(-c2cccc(-c3nc4ccccn4c3NC3CCCCC3)c2)cc1 | – | inactive: 0.0693%
24 | CC(=O)c1c(C)[nH]c(C(=O)OCC(=O)Nc2ccc([N+](=O)[O-])cc2Cl)c1C | – | inconclusive: -0.425%
25 | Cc1ccc2c(c1)sc1nc(-c3cc4cc(Cl)ccc4oc3=O)cn12 | – | inconclusive: -25.3%
26 | O=C(N/N=C/c1ccc(OC(=O)c2ccccc2)cc1)c1cccc(O)c1 | – | inconclusive: 271%
27 | COc1cc(OC)c2c(C)cc(=O)oc2c1C(CCN1CCOCC1)c1ccc2c(c1)OCO2 (stereo not given) | – | inactive: -15.7%
28 | CCOc1ccc(Oc2nc(C)cc(OC)n2)nn1 | – | inconclusive: 3.63%
29 | O=C(O)CN1C(=O)/C(=C\c2cccc(OCc3ccc(F)cc3)c2)SC1=S | – | inconclusive: 1.08%
30 | Cc1cc(C)nc(Nc2cccc(Cl)c2)n1 | – | inactive: 7.77%
31 | Cc1ccc(N2CC(NC(=O)Cc3ccc(F)cc3)CC2=O)cc1 (stereo not given) | – | inconclusive: 9.81%
32 | CCOc1cc(OCC)cc(C(=O)Nc2cccnc2)c1 | – | inconclusive: 6.95%
33 | O=C(CSC(=S)N1CCOCC1)Nc1nccs1 | – | inconclusive: -6.51%
34 | Cn1c(CCNC(=O)c2ccco2)nc2cc(NC(=O)C3CCCCC3)ccc21 | inconclusive: 23.1 µM [falling, single point] | –
35 | CC(O)[C@H]1CNC(=O)C(=O)N1CCc1cccc(F)c1 (stereo not given in full) | – | inconclusive: 0.528%
36 | Cn1c(SCC(=O)NCc2ccccc2)nc2c([nH]c3ccccc32)c1=O | – | inactive: 5.18%
37 | Cc1cc(C)n(-c2nc(SCCN(C)C)c3c4c(sc3n2)COC(C)(C)C4)n1 | – | inconclusive: -8.32%
38 | CCOc1ccc(-c2c(C(=O)N/N=C/c3ccc(OC)cc3)nnn2-c2nonc2N)cc1 | – | inconclusive: 12.5%
39 | CC(=O)Nc1cccc(C(=O)/C=C/c2ccco2)c1 | inconclusive: 15.8 µM [falling, single point] | –
